This is one part of the list.
compound: Cc1cc(ccc1-c1ccccc1)C(=O)N1CCCN(CC1)C(=O)CCl [compound 10]; assay: probe-labelled cysteine peptide fold change vs DMSO (competition) (log2 fold change); higher = less target engagement (more negative = stronger competition); conditions: 10 µM; THP-1; incubation time: 4 h
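Further: competitive profiling in live THP-1 cells: cysteine peptides tagged with an iodoacetamide desthiobiotin (IA-DTB) probe, intensity after compound treatment relative to DMSO-treated cells.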

Chains of the proteins cited; added tags and fusions are not shown. Lines headed by an entry give the natural chain unless they say otherwise; changes in a name come on top.
UniProt P13489: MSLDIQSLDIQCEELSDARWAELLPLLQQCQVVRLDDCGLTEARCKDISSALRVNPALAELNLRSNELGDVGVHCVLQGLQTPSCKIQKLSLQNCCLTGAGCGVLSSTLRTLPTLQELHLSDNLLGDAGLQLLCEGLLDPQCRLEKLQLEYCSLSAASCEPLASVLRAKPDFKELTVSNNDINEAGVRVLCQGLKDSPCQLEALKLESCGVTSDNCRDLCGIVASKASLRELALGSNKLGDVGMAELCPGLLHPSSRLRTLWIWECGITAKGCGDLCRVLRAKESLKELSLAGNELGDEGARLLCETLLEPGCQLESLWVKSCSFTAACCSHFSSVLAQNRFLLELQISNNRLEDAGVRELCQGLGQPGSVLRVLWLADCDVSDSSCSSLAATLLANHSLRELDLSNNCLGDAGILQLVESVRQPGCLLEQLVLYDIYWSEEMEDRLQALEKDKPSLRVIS
UniProt O75116: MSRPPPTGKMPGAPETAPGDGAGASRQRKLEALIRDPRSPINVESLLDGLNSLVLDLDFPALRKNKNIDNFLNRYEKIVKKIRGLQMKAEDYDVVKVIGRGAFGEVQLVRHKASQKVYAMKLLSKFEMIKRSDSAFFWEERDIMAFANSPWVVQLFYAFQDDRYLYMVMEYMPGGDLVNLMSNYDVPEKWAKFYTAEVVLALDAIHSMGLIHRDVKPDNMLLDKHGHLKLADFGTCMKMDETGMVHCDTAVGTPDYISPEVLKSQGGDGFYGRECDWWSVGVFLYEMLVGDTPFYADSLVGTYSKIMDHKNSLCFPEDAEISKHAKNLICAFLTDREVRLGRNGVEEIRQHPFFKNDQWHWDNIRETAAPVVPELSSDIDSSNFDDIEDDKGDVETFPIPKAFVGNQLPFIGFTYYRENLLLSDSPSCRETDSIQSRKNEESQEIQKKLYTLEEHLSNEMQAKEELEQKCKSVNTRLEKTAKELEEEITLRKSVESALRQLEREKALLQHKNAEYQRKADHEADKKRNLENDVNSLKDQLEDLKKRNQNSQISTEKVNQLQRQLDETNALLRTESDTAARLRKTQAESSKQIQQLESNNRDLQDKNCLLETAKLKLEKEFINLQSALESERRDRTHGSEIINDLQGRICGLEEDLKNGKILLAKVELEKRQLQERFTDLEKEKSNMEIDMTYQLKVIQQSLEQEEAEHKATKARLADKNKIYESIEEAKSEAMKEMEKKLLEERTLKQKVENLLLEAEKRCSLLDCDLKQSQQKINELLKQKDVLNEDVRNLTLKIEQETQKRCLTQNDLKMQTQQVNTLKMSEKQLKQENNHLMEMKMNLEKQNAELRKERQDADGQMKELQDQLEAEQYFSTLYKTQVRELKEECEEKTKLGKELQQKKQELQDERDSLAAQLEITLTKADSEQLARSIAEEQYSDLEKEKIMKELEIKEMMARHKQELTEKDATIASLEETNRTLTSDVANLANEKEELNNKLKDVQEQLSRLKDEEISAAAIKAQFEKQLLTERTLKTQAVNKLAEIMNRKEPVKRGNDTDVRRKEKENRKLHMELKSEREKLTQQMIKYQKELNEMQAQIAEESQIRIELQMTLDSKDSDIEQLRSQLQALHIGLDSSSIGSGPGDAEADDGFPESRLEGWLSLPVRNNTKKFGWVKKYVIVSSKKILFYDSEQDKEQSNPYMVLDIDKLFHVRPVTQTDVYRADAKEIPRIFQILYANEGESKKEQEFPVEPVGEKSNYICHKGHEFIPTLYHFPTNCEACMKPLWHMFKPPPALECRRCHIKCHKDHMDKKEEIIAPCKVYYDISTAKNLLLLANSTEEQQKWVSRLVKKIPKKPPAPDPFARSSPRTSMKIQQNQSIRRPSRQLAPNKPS
UniProt Q8ND24: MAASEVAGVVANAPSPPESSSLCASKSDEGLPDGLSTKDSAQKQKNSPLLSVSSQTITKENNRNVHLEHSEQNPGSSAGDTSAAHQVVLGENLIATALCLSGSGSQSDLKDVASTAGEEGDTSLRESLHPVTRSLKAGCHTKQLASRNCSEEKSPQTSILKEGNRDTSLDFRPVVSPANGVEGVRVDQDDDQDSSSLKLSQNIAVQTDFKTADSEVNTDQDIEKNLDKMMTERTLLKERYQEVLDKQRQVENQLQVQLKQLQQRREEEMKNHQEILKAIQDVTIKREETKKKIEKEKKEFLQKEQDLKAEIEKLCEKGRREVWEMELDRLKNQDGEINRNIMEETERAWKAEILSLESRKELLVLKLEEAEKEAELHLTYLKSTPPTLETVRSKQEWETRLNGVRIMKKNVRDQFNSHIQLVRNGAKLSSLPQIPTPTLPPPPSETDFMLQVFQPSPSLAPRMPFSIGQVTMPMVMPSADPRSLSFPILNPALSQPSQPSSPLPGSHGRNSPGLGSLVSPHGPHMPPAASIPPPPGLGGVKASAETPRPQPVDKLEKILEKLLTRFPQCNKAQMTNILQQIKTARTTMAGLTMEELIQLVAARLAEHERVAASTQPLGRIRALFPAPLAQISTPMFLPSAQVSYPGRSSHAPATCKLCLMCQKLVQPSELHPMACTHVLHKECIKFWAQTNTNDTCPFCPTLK
UniProt Q5VTB9: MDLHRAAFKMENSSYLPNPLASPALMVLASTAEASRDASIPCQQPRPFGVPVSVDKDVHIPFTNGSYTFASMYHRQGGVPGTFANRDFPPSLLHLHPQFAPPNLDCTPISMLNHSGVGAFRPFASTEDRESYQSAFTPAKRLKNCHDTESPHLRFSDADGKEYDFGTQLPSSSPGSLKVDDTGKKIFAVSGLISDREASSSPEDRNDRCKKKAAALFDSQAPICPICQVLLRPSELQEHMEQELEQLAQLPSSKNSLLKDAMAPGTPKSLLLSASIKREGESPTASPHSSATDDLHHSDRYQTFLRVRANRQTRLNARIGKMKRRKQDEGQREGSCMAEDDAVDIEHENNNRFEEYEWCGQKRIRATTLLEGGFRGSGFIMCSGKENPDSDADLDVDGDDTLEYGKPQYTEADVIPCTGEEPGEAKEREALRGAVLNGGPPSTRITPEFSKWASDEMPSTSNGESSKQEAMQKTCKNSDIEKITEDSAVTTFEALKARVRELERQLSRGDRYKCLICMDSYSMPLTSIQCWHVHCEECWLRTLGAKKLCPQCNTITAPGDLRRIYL
UniProt Q9BUL9: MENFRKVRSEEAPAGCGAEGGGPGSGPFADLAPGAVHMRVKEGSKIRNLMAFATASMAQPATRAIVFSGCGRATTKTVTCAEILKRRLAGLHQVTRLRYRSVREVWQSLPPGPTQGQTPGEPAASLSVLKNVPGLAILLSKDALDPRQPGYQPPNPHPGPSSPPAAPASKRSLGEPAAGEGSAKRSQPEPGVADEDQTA
UniProt Q13464: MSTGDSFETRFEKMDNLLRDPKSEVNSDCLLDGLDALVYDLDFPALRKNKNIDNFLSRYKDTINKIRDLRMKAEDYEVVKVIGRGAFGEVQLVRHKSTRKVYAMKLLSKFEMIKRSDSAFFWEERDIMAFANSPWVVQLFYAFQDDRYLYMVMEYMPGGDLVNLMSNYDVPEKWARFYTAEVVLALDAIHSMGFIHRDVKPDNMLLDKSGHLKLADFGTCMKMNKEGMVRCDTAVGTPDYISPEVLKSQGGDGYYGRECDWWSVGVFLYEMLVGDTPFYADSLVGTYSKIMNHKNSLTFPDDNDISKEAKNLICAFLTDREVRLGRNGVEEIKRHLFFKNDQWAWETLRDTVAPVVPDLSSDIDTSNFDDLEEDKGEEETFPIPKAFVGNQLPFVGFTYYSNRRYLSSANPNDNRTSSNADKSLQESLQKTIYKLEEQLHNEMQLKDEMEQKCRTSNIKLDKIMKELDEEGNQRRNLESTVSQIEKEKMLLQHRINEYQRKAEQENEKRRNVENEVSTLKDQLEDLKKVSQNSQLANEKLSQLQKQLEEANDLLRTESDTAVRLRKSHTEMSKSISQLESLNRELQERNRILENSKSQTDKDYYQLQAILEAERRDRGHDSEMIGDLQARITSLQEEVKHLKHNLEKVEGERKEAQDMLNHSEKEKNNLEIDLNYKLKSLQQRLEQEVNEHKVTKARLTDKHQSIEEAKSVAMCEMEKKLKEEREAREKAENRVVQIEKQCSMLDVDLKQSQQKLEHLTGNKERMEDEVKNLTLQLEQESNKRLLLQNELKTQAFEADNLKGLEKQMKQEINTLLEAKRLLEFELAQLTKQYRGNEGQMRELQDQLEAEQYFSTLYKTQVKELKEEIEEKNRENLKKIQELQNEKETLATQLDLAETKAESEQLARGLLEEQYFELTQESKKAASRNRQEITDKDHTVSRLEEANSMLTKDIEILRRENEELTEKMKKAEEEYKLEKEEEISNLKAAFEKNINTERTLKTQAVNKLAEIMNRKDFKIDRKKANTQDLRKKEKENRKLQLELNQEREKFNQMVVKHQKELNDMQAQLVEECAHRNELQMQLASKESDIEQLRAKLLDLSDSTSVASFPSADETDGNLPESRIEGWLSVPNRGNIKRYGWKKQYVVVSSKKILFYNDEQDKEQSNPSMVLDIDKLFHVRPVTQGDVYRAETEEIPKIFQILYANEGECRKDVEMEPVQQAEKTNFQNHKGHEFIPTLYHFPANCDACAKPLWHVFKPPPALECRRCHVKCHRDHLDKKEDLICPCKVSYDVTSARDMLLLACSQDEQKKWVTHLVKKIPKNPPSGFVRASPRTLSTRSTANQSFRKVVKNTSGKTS
UniProt Q9H7B2: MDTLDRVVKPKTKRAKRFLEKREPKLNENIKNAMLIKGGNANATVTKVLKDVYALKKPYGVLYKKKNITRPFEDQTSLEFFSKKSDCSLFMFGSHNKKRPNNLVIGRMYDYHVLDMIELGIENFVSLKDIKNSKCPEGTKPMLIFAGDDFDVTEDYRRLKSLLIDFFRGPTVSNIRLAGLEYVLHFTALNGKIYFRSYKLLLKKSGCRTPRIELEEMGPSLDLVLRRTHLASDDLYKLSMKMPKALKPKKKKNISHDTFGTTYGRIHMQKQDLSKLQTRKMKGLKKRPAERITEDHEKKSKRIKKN
UniProt Q5VT52: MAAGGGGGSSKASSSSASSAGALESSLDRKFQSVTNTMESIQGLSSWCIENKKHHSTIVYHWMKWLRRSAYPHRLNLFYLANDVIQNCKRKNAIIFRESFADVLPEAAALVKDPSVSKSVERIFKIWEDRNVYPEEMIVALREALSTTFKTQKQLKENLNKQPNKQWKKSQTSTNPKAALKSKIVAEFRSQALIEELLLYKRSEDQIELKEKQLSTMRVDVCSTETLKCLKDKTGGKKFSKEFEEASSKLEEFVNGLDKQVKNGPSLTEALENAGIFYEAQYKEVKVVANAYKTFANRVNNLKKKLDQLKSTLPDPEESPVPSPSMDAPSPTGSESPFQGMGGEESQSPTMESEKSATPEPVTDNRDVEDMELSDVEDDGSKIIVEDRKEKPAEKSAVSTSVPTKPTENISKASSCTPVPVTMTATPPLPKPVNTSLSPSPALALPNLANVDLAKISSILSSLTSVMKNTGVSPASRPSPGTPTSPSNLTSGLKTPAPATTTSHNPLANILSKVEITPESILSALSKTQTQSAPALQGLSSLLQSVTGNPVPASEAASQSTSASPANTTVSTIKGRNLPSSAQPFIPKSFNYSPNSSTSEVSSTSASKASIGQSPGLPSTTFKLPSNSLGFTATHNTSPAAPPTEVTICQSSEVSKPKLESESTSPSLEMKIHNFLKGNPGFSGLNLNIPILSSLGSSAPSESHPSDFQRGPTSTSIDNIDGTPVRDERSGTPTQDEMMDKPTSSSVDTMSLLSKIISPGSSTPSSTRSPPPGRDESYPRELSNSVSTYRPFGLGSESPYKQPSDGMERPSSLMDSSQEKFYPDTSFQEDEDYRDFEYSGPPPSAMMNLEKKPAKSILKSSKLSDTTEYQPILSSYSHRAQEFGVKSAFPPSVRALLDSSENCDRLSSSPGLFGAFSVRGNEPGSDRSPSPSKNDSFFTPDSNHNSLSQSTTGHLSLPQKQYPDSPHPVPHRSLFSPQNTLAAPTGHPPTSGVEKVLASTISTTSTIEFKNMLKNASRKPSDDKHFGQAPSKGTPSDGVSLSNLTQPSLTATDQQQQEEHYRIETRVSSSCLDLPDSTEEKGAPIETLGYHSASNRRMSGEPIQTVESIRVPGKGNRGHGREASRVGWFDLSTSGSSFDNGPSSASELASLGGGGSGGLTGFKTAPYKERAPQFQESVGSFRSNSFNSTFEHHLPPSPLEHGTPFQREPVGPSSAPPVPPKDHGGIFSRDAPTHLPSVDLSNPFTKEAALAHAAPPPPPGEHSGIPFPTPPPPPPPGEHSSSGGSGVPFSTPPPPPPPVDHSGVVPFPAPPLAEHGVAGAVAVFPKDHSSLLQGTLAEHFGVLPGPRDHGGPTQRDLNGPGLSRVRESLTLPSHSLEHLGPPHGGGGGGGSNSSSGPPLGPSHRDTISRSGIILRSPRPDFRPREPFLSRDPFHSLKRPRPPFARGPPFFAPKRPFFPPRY

Target	probe-labelled cysteine peptide fold change
RNH1_P13489_75+85_SNELGDVGVHCVLQGLQTPSCK (UniProt P13489)	-0.0955
RPL11_P62913_21+25_LCLNICVGESGDR (UniProt P62913)	-0.012
RNF213_Q63HN8_2809_QVHLVSFQCSPHSTPQGIISTFR (UniProt Q63HN8)	0.305
RPA1_P27694_323_DSLVDIIGICK (UniProt P27694)	0.177
RPLP0_P05388_27_CFIVGADNVGSK (UniProt P05388)	0.0238
ROCK2_O75116_1277_GHEFIPTLYHFPTNCEACMK (UniProt O75116)	-0.0306
RPL24_P83731_6_MKVELCSFSGYK (UniProt P83731)	0.0015
RNF214_Q8ND24_23_AASEVAGVVANAPSPPESSSLCASK (UniProt Q8ND24)	0.0223
RNF220_Q5VTB9-3_115_HVEHCLSK (UniProt Q5VTB9)	-0.0623
RNFT1_Q5M7Z0_106_SGVHSCAHGCVHSR (UniProt Q5M7Z0)	0.244
RNF213_Q63HN8_3084_DQEYTQLCR (UniProt Q63HN8)	0.0389
RPP25_Q9BUL9_70_AIVFSGCGR (UniProt Q9BUL9)	0.319
RNH1_P13489_199_DSPCQLEALKLESCGVTSDNCR (UniProt P13489)	-0.339
RNH1_P13489_96_LSLQNCCLTGAGCGVLSSTLR (UniProt P13489)	-0.12
ROCK1_Q13464_1070_ELNDMQAQLVEECAHR (UniProt Q13464)	-0.0113
RNH1_P13489_209_LESCGVTSDNCR (UniProt P13489)	-0.223
ROCK2_O75116_1315_KEEIIAPCK (UniProt O75116)	0.0773
RPF2_Q9H7B2_87_KSDCSLFMFGSHNK (UniProt Q9H7B2)	0.0597
RPL7A_P62424_199_TCTTVAFTQVNSEDK (UniProt P62424)	0.101
RPRD2_Q5VT52_903_ALLDSSENCDR (UniProt Q5VT52)	-0.167
RPL17_P18621_144_INPYMSSPCHIEMILTEK (UniProt P18621)	0.211
RPL10_P27635_49_AKVDEFPLCGHMVSDEYEQLSSEALEAAR (UniProt P27635)	-0.186
